Measurements from the supplement of paper PMC12819154, “High-throughput peptide-centric local stability assay extends protein–ligand identification to membrane proteins, tissues and bacteria” (Nature Structural & Molecular Biology, 2025).
The other results are listed elsewhere or left out. Most values lie at the level of the controls, where differences are scatter.

Protein sequences, listed by entry. Tags and fused reporters are not part of them. Lines headed by an entry give the natural chain unless they say otherwise; changes in a name come on top.
UniProt Q8IV08: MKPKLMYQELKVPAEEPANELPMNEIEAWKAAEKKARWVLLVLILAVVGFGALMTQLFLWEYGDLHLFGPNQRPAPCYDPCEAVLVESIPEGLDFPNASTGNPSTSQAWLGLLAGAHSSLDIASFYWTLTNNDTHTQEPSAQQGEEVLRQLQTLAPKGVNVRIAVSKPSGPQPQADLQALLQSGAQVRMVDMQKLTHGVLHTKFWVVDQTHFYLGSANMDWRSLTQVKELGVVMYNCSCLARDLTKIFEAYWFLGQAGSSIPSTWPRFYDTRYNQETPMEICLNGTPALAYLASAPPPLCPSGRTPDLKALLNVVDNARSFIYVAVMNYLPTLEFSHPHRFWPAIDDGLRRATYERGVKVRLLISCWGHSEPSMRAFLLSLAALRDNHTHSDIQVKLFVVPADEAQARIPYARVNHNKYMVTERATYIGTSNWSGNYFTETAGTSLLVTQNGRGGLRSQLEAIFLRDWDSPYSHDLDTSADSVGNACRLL
UniProt Q8N3J2: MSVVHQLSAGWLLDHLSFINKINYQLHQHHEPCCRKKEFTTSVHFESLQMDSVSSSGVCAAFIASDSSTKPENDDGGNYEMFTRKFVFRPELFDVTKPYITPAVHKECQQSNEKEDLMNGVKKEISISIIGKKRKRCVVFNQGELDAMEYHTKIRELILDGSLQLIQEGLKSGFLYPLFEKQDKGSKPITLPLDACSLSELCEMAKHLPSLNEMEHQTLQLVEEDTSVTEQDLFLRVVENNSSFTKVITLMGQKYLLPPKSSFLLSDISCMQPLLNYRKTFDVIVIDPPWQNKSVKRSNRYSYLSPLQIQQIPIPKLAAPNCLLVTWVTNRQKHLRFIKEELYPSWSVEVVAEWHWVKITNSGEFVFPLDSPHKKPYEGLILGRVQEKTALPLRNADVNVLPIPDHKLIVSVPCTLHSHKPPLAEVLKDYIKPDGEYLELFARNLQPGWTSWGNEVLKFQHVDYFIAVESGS
UniProt Q86XR8: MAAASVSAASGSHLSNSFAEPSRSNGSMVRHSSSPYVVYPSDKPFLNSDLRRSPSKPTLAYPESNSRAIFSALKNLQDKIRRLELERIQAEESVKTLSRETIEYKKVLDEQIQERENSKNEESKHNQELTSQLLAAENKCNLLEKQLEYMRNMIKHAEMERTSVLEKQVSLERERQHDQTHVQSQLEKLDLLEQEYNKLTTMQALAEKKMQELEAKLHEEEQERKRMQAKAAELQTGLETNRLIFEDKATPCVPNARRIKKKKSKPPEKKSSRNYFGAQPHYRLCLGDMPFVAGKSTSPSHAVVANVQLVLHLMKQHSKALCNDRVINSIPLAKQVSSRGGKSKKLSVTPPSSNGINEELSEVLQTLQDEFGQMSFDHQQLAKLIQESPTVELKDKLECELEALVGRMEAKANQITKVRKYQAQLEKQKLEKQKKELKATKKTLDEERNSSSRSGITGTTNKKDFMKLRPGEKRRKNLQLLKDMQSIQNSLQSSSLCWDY
UniProt Q8IVD9: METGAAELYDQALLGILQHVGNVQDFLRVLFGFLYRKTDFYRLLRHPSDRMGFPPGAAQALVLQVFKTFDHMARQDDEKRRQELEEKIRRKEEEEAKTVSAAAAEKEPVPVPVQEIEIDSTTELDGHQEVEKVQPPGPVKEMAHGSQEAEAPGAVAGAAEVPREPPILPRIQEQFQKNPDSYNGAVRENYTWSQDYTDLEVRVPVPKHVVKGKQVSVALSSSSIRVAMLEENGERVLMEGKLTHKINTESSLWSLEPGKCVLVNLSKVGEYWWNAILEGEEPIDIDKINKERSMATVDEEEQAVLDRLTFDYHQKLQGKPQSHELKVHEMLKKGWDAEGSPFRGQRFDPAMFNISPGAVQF
UniProt Q8IZH2: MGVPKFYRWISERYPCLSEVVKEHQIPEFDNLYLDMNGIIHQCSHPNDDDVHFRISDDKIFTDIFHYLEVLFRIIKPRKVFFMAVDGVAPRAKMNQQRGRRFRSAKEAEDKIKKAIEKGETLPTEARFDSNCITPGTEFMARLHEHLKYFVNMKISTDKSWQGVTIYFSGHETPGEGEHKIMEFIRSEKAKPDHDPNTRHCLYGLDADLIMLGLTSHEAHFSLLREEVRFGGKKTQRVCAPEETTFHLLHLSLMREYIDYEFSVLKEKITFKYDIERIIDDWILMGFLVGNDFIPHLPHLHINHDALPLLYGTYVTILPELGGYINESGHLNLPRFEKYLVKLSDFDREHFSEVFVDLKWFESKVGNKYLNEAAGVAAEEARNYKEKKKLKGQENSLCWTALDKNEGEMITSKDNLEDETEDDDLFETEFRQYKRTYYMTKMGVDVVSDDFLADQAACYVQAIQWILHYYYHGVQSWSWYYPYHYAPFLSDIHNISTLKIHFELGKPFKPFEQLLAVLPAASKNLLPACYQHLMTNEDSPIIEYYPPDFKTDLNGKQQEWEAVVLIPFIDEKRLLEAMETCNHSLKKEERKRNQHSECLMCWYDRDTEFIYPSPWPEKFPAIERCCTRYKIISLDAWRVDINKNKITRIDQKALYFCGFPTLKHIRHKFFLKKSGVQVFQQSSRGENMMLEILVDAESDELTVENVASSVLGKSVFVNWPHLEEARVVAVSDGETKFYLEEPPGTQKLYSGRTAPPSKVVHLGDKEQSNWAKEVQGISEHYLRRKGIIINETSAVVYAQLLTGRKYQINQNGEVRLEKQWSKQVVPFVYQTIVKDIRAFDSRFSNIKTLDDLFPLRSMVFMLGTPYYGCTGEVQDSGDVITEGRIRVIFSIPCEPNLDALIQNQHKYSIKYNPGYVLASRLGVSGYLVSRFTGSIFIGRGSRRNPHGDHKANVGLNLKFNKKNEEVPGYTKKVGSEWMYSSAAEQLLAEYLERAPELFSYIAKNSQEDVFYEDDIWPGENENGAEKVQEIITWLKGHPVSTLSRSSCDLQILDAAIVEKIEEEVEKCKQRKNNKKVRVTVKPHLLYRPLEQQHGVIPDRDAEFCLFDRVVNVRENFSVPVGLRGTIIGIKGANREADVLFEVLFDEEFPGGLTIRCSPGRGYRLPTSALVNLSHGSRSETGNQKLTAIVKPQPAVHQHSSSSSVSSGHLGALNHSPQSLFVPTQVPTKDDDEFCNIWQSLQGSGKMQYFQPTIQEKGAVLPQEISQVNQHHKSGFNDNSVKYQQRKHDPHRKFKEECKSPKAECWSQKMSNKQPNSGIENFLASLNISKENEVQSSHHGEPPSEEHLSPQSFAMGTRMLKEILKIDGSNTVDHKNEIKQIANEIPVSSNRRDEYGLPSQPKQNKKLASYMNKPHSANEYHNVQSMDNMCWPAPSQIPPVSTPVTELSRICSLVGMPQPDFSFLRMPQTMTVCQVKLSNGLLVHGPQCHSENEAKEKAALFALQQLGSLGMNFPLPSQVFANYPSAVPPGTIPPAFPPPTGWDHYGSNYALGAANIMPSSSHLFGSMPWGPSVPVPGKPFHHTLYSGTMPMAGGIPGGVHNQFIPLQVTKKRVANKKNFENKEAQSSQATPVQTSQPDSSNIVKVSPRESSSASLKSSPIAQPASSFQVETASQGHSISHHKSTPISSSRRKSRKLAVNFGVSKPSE
UniProt Q8IVV7: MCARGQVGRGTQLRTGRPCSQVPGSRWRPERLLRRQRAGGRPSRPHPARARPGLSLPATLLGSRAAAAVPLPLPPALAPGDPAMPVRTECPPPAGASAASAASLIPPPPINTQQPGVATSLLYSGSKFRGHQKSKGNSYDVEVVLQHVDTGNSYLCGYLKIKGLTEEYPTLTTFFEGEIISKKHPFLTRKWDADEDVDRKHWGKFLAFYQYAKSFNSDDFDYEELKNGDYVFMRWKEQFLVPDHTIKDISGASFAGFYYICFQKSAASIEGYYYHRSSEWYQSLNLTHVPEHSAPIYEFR
UniProt Q8N1W2: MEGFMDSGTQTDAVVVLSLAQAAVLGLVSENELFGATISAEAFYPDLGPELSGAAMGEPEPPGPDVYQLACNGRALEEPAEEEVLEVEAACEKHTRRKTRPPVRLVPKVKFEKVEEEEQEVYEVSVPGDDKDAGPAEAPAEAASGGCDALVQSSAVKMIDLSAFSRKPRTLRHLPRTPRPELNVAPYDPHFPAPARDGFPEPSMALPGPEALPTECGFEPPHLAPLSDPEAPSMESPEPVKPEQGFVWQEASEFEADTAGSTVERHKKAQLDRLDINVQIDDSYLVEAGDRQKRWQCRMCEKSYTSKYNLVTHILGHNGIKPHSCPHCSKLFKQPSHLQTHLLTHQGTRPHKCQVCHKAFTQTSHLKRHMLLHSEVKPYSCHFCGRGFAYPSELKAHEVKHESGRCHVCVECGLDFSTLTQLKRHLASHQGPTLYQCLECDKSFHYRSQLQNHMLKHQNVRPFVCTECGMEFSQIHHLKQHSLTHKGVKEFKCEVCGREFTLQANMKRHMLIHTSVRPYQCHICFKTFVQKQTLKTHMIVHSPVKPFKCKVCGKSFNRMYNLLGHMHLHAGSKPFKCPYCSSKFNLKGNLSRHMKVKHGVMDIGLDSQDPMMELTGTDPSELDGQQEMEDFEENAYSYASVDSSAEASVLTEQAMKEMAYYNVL
UniProt Q86YH6: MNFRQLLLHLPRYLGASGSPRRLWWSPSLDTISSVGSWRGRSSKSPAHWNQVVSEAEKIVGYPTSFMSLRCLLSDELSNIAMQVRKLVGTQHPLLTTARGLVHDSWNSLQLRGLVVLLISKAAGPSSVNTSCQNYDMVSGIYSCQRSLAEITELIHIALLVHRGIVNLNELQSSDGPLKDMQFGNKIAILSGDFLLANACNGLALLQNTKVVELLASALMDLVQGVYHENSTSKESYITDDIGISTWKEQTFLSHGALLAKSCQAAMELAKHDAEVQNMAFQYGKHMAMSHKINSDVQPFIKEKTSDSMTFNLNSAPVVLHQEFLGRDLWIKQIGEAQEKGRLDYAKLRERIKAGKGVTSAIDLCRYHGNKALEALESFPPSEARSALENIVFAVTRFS
UniProt Q8IV50: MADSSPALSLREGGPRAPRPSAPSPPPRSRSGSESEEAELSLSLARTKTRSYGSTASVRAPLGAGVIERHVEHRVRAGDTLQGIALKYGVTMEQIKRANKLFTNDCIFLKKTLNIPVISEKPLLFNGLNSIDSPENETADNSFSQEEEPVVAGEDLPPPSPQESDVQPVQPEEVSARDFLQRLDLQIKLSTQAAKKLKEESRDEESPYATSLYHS
UniProt Q86XF0: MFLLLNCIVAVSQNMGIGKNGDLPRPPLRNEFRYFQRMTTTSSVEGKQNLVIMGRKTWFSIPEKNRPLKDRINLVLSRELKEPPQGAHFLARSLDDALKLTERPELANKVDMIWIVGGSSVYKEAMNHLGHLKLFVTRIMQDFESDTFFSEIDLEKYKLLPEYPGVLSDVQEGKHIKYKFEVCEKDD
UniProt Q8IXQ4: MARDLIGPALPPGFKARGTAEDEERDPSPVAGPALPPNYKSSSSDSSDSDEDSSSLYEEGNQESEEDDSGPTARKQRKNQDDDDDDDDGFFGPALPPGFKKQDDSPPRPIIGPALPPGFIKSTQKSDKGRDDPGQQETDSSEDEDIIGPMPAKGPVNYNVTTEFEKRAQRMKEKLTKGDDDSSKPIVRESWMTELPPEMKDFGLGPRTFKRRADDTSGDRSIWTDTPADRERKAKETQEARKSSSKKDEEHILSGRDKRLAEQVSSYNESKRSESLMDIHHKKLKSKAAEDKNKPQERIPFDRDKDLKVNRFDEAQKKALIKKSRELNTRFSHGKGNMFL
UniProt Q8IWP9: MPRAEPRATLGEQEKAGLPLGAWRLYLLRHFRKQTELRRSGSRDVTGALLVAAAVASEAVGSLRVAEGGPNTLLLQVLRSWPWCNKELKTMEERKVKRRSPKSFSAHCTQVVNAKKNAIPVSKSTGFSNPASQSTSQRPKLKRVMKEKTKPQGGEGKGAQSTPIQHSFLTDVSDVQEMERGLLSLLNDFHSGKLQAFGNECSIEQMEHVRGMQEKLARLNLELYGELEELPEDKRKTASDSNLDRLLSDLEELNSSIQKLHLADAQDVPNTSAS
UniProt Q8IUQ4: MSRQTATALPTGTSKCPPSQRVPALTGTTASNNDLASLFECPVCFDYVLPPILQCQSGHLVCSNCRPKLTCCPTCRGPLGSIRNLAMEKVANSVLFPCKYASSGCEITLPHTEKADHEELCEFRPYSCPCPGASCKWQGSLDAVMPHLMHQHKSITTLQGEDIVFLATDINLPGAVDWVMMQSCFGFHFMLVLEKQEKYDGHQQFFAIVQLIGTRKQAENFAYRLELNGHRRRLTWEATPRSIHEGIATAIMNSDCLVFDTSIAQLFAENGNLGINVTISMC
UniProt Q8N335: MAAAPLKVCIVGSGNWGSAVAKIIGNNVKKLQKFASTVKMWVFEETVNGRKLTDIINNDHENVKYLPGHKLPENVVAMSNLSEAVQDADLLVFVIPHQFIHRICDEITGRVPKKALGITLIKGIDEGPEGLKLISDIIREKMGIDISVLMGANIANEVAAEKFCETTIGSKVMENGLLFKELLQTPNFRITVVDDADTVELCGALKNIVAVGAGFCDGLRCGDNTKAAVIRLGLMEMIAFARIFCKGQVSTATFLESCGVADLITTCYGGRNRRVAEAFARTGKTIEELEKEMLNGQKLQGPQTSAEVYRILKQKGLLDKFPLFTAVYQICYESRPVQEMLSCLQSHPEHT

Compound: CN[C@@H]1C[C@H]2O[C@@](C)([C@@H]1OC)n1c3ccccc3c3c4c(c5c6ccccc6n2c5c31)C(=O)NC4 [staurosporine]
Experiment: log2 fold change of tryptic peptide abundance, ligand vs vehicle (limited proteolysis) (log2 ratio); higher = more trypsin-susceptible (destabilized)
Conditions: ligand concentration: 20 uM; sample: K562 cleared lysate; digestion: 4 min, 22 C (HT-PELSA RT4min, Orbitrap Astral)

SMC5 (peptide sequence: LQAVDSGLIALR, peptide start residue: 666) (UniProt Q8IY18)
log2 fold change: 0.535

ZNF444 (peptide sequence: QSHSGEKPHACPECGK, peptide start residue: 199) (UniProt Q8N0Y2)
log2 fold change: -0.947

UniProt Q8IZQ8 (peptide sequence: YHQYIPPDQK, peptide start residue: 294)
log2 fold change: -0.304

PLD3 (peptide sequence: ALLNVVDNAR, peptide start residue: 310) (UniProt Q8IV08)
log2 fold change: -0.163

UniProt Q8IYN6 (peptide sequence: AMAAMDGQR, peptide start residue: 156)
log2 fold change: -0.0691

UniProt Q8N0T1 (peptide sequence: NVFHIASQK, peptide start residue: 13)
log2 fold change: 0.299

UniProt Q8IWY8 (peptide sequence: NSQVYGAVAER, peptide start residue: 275)
log2 fold change: 0.356

METTL4 (peptide sequence: EISISIIGK, peptide start residue: 124) (UniProt Q8N3J2)
log2 fold change: 0.0182

MICALL1 (peptide sequence: QREEEEDKMLEAMIK, peptide start residue: 807) (UniProt Q8N3F8)
log2 fold change: 0.48

CEP57 (peptide sequence: SPSKPTLAYPESNSR, peptide start residue: 53) (UniProt Q86XR8)
log2 fold change: 0.789

PROSER2 (peptide sequence: FPSNIIVTNGAAREPR, peptide start residue: 253) (UniProt Q86WR7)
log2 fold change: 0.267

NUDCD3 (peptide sequence: SMATVDEEEQAVLDR, peptide start residue: 293) (UniProt Q8IVD9)
log2 fold change: -0.322

XRN1 (peptide sequence: QPNSGIENFLASLNISK, peptide start residue: 1313) (UniProt Q8IZH2)
log2 fold change: -0.674

GID4 (peptide sequence: ARPGLSLPATLLGSR, peptide start residue: 50) (UniProt Q8IVV7)
log2 fold change: -0.0637

KLHL7 (peptide sequence: ATADDFIHQHFTEVYK, peptide start residue: 163) (UniProt Q8IXQ5)
log2 fold change: -1.09

MRPL41 (peptide sequence: YGFEPTQEGK, peptide start residue: 117) (UniProt Q8IXM3)
log2 fold change: -0.137

RNF168 (peptide sequence: QTHTKHPTPER, peptide start residue: 502) (UniProt Q8IYW5)
log2 fold change: 0.882

ARHGAP18 (peptide sequence: IGDLAPQDMK, peptide start residue: 276) (UniProt Q8N392)
log2 fold change: -0.147

UniProt Q8N1W2 (peptide sequence: TPRPELNVAPYDPHFPAPAR, peptide start residue: 177)
log2 fold change: -0.0814

INTS1 (peptide sequence: NYMAHLVEVQHER, peptide start residue: 1284) (UniProt Q8N201)
log2 fold change: 0.541

UniProt Q8N3J9 (peptide sequence: AFSQSSSLCIHQR, peptide start residue: 179)
log2 fold change: 0.183

PDSS2 (peptide sequence: LVGTQHPLLTTAR, peptide start residue: 87) (UniProt Q86YH6)
log2 fold change: 0.179

LYSMD2 (peptide sequence: LFTNDCIFLKK, peptide start residue: 101) (UniProt Q8IV50)
log2 fold change: -0.0808

TCEAL8 (peptide sequence: HLDPEEMIR, peptide start residue: 69) (UniProt Q8IYN2)
log2 fold change: 0.161

UniProt Q86XF0 (peptide sequence: TWFSIPEK, peptide start residue: 57)
log2 fold change: 0.238

KMT2E (peptide sequence: HLVNEWLSEKNEK, peptide start residue: 733) (UniProt Q8IZD2)
log2 fold change: -0.286

UniProt Q8IZ26 (peptide sequence: AVTLTNGESSR, peptide start residue: 166)
log2 fold change: -0.246

SCYL3 (peptide sequence: NTSEDSENFPSSSKK, peptide start residue: 511) (UniProt Q8IZE3)
log2 fold change: -0.245

UniProt Q86W54 (peptide sequence: DVIESQEELIHQLR, peptide start residue: 24)
log2 fold change: -0.732

CNPY4 (peptide sequence: SREVLELGQVLDTGKR, peptide start residue: 58) (UniProt Q8N129)
log2 fold change: 0.108

FAM114A1 (peptide sequence: SVLTGGLDALEFIGKK, peptide start residue: 222) (UniProt Q8IWE2)
log2 fold change: 0.368

FNBP4 (peptide sequence: TKMPSLVK, peptide start residue: 941) (UniProt Q8N3X1)
log2 fold change: -0.44

UniProt Q8N0Z3 (peptide sequence: VSHMGEDLENK, peptide start residue: 606)
log2 fold change: 0.416

UniProt Q8IWT1 (peptide sequence: LIIFILK, peptide start residue: 186)
log2 fold change: 0.0738

UniProt Q8IXQ4 (peptide sequence: LAEQVSSYNESKR, peptide start residue: 260)
log2 fold change: -0.152

THOC6 (peptide sequence: ERSPEVLSGGEDGAVR, peptide start residue: 178) (UniProt Q86W42)
log2 fold change: -0.506

CEP97 (peptide sequence: MQEHIVCLTDEIRR, peptide start residue: 593) (UniProt Q8IW35)
log2 fold change: -0.439

CCAR1 (peptide sequence: GYKQQLVEK, peptide start residue: 592) (UniProt Q8IX12)
log2 fold change: 0.677

UniProt Q8IYK4 (peptide sequence: TPDYVQIR, peptide start residue: 215)
log2 fold change: -0.179

COA5 (peptide sequence: QCLKEGYCNSLK, peptide start residue: 40) (UniProt Q86WW8)
log2 fold change: -0.0792

CCDC28A (peptide sequence: GLLSLLNDFHSGK, peptide start residue: 181) (UniProt Q8IWP9)
log2 fold change: 0.193

NR2C2AP (peptide sequence: GCLEGSQGTQALHK, peptide start residue: 75) (UniProt Q86WQ0)
log2 fold change: -0.643

MISP (peptide sequence: ERESVLR, peptide start residue: 310) (UniProt Q8IVT2)
log2 fold change: -0.0888

UniProt Q8IYS0 (peptide sequence: SLLPTLEK, peptide start residue: 279)
log2 fold change: 0.131

SIAH1 (peptide sequence: LTCCPTCR, peptide start residue: 69) (UniProt Q8IUQ4)
log2 fold change: 0.286

SMAP1 (peptide sequence: EPEKPAKPLTAEK, peptide start residue: 180) (UniProt Q8IYB5)
log2 fold change: -0.196

UniProt Q8N184 (peptide sequence: AFSHNEVLMQYQK, peptide start residue: 190)
log2 fold change: 0.18

UniProt Q8IYT4 (peptide sequence: GLLLYGPPGTGK, peptide start residue: 289)
log2 fold change: -0.011

ZC3H7A (peptide sequence: FAHGNAELHEWEERR, peptide start residue: 923) (UniProt Q8IWR0)
log2 fold change: -0.813

DCP2 (peptide sequence: EVFEETGFDIK, peptide start residue: 144) (UniProt Q8IU60)
log2 fold change: -0.21

SIRT2 (peptide sequence: KSPPPAKDEAR, peptide start residue: 371) (UniProt Q8IXJ6)
log2 fold change: 0.197

CDAN1 (peptide sequence: VLPQGPPTPAK, peptide start residue: 64) (UniProt Q8IWY9)
log2 fold change: 0.268

FAM219A (peptide sequence: EGESVAMNYKPSPLQVK, peptide start residue: 36) (UniProt Q8IW50)
log2 fold change: 0.178

GPD1L (peptide sequence: FCETTIGSK, peptide start residue: 163) (UniProt Q8N335)
log2 fold change: 0.433

DDX42 (peptide sequence: DIDTHTHR, peptide start residue: 578) (UniProt Q86XP3)
log2 fold change: 0.208

SVBP (peptide sequence: AEIYALNR, peptide start residue: 37) (UniProt Q8N300)
log2 fold change: -0.0615

UniProt Q86YS7 (peptide sequence: TPNDGSYEQHISHMQK, peptide start residue: 601)
log2 fold change: 0.219

FAM126B (peptide sequence: YSTVSLQEDR, peptide start residue: 487) (UniProt Q8IXS8)
log2 fold change: -0.17

UniProt Q8IZX4 (peptide sequence: IITRPMDLQTLR, peptide start residue: 1420)
log2 fold change: 0.286

UniProt Q8IVE0 (peptide sequence: LQAAQEELR, peptide start residue: 629)
log2 fold change: -0.0915

UniProt Q8IV76 (peptide sequence: VQICLQNPR, peptide start residue: 583)
log2 fold change: -0.124

ARMC8 (peptide sequence: YPSSVSAITDIK, peptide start residue: 334) (UniProt Q8IUR7)
log2 fold change: 0.264

RPAP2 (peptide sequence: LKASENSESEYSR, peptide start residue: 309) (UniProt Q8IXW5)
log2 fold change: -0.565
